Measurements as given in PMC9897159.
No constants are given. Whether binding was seen depends on the method and setting. In cells and extracts the contact can be indirect. Some entries that bind do so weakly or less than the wild type.

What was measured:
[1] = molecular target: SARS-CoV-2 E protein fused to YFP (SARS-CoV-2) (UniProt P0DTC4); test: FRET or BRET
[2] = molecular target: SARS-CoV-2 E protein deletion mutant lacking amino acids 53 to 65, HA-tagged (SARS-CoV-2) (UniProt P0DTC4); test: co-IP

Substance | binding [1] | binding [2]
human RNF5 fused to ECFP (from UniProt Q99942 1-180) (enzyme) | binds | 
human RNF5 with a Flag tag (from UniProt Q99942 1-180) (enzyme) |  | binds
